Assay results published in article PMC7819943, “Rice protein-binding microarrays: a tool to detect cis-acting elements near promoter regions in rice”.
The other results are listed elsewhere or left out.

Target: T1, OsSMF1 (Oryza sativa, UniProt Q6ZLB0 1-436)
T1 sequence: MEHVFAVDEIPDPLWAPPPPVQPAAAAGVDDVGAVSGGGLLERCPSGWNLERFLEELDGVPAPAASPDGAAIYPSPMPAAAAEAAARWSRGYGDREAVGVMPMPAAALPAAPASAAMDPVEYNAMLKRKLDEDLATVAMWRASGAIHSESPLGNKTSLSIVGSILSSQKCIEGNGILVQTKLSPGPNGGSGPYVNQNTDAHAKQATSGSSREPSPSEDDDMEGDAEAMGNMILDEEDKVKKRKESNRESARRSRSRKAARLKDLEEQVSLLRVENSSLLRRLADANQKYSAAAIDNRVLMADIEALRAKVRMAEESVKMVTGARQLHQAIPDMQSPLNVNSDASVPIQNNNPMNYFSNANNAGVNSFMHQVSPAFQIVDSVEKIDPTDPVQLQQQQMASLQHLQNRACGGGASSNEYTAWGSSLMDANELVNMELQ
Assay: protein-binding microarray (RPBM); PBS, 2% BSA, 51.3 ng/ul salmon testes DNA, 50 uM zinc acetate, 200 nM TF, 25 C, 1 h; high values mean tight binding
Details: protein: recombinant; tags: N-terminal polyhistidine and DsRed monomer fusion (pET32a); chain copies: 2; label: CyDye5-dUTP incorporated in the synthesized complementary strand; 3' TTTTT single-stranded linker to array surface; dsDNA, one strand shown
Procedure, shortened: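 Polyhistidine-tagged DsRed fusions of transcription factors, joined at the N-terminus, were expressed in E. coli BL21-CodonPlus and isolated on Ni–NTA. They were incubated at 200 nM for 1 h at 25 °C on a custom Agilent array, double-stranded and BSA-blocked, in PBS with 2% BSA, salmon testes DNA and 50 µM zinc acetate. The binding signal is per-feature fluorescence intensity (arbitrary units) read on an Axon 4000B scanner after washing.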

Sequence	binding signal
CGAGTCCAACGTGCCTAGCTCCTATCCAACTTCTTCACCGCGGAGTCACCTAGTGCAG	4900 fluorescence intensity (a.u.)
TATCTCTCTTTCTCTTTCTTCGTGTCGTCGACTTCGCATGCGGAGTCACCTAGTGCAG	3380 fluorescence intensity (a.u.)
TTTCTCCAAAAGCGTTGATGTCGCACGTGAGCCACGTCAGCGGAGTCACCTAGTGCAG	34800 fluorescence intensity (a.u.)
ATGCGATTCGATATGATCTGTACCGAACACTGTAGCAAGCCGGAGTCACCTAGTGCAG	3450 fluorescence intensity (a.u.)
GGTAGTAGTCGTAGTAGTAGACCAGGTGGACGCGTGTCAGCGGAGTCACCTAGTGCAG	6350 fluorescence intensity (a.u.)
GCCGCGCGTGATCGATCACGCGTTAGCTTTCTAGCTAGTTCGGAGTCACCTAGTGCAG	3820 fluorescence intensity (a.u.)
GTGTGCCTCGAGTGGTGGTGGTACGAGGTGATGATCCTGCCGGAGTCACCTAGTGCAG	22700 fluorescence intensity (a.u.)
AGGCCCATTTAAGCCCACGTTTCTCTTGTCCTCAACCCCACGGAGTCACCTAGTGCAG	3220 fluorescence intensity (a.u.)
TGTAGATTGCTCGTAGGCCATAGTGACGCCAACCCTCGCCCGGAGTCACCTAGTGCAG	5120 fluorescence intensity (a.u.)
AAATACTATCTCGCTGAGTAGACTGAGGCACGCGTAGAAACGGAGTCACCTAGTGCAG	3870 fluorescence intensity (a.u.)
CCGAGAGGTGGGGTGTGTGTCACTCACGCCGCGCGCTGGGCGGAGTCACCTAGTGCAG	4790 fluorescence intensity (a.u.)
TTAACTATTTGCCACCCATATGTCTATGACACGTGGGTCTCGGAGTCACCTAGTGCAG	9590 fluorescence intensity (a.u.)
ATGTTAGTAAATTCGCGTCGGATTGCTTCTTATCAGAGCCCGGAGTCACCTAGTGCAG	3200 fluorescence intensity (a.u.)
AATACTGGTCAATAAAATTTCCAAGATCAAAATAAACGTACGGAGTCACCTAGTGCAG	25000 fluorescence intensity (a.u.)
CAGCTGACTTATAGCCTACTATACCTGCTGTACCTGCTGGCGGAGTCACCTAGTGCAG	3340 fluorescence intensity (a.u.)
TATGAATGGAAAGTCTGACCCATATGTTGTACTTTCACTCCGGAGTCACCTAGTGCAG	4500 fluorescence intensity (a.u.)
TGACGACGATCGTCGTCATGTACCCCGGCGCGATCTTGACCGGAGTCACCTAGTGCAG	4230 fluorescence intensity (a.u.)
TCGACCTTTTCAGCATTACTAGTTTACTACCTTTTCTTATCGGAGTCACCTAGTGCAG	26900 fluorescence intensity (a.u.)
AGGCCATCATCACTTTAGTCTTATTTTCGTCACCATCATCCGGAGTCACCTAGTGCAG	3560 fluorescence intensity (a.u.)
CCATATCATATTACTCCTACATGTGTACTACATTTATATTCGGAGTCACCTAGTGCAG	3720 fluorescence intensity (a.u.)
TCATGTACCACTTTTGTTATGGTAATGTGTCATGTACCTTCGGAGTCACCTAGTGCAG	3680 fluorescence intensity (a.u.)

Laid out differently: results already given.
GGTAGTAGTCGTAGTAGTAGACCAGGTGGACGCGTGTCAGCGGAGTCACCTAGTGCAG
  binding signal: 6350 fluorescence intensity (a.u.)
GCCGCGCGTGATCGATCACGCGTTAGCTTTCTAGCTAGTTCGGAGTCACCTAGTGCAG
  binding signal: 3820 fluorescence intensity (a.u.)
GTGTGCCTCGAGTGGTGGTGGTACGAGGTGATGATCCTGCCGGAGTCACCTAGTGCAG
  binding signal: 22700 fluorescence intensity (a.u.)

Carrying on:

Sequence	binding signal
TATCATTAAGTGAAAAGTGGCTATAGCCTTGGTCTATTTGCGGAGTCACCTAGTGCAG	3750 fluorescence intensity (a.u.)
TATATATATATATATATATATATATAGTAGCAGTAGCAGTCGGAGTCACCTAGTGCAG	3240 fluorescence intensity (a.u.)
CTGTTGGCACTTACACAATCACATTCACATTTGGTGTTTTCGGAGTCACCTAGTGCAG	3220 fluorescence intensity (a.u.)
CATCCATGACCATGGAATCGGCGTGCCACAAGGTGAGCGGCGGAGTCACCTAGTGCAG	3340 fluorescence intensity (a.u.)
TGCATAAGGATAATCCGGTCGTCAGCAAACAATGCATTCACGGAGTCACCTAGTGCAG	3450 fluorescence intensity (a.u.)
TTCCGCCACATCAGGGAGGACGAGGTGACGGCGCGGGTGGCGGAGTCACCTAGTGCAG	3160 fluorescence intensity (a.u.)
CACCTAGCATGCATAGGACGAGGCATTTAATTTTACTTATCGGAGTCACCTAGTGCAG	22000 fluorescence intensity (a.u.)
CCTGTAGCTCTCATGTTGCATGACTGTAACAACATGTGCACGGAGTCACCTAGTGCAG	4700 fluorescence intensity (a.u.)
AGTTAAAAGAGCATGAATTAAATAGCATCGATCTGAGGTGCGGAGTCACCTAGTGCAG	3280 fluorescence intensity (a.u.)
GAAATATAATGCCACAACACAATGTTATACACGTACGAGTCGGAGTCACCTAGTGCAG	3530 fluorescence intensity (a.u.)
GGATGCCGAGTCAGACACACGGTGGATTTTCATTTTATATCGGAGTCACCTAGTGCAG	7740 fluorescence intensity (a.u.)
ACGCACCTGCACATTTGGAACTTGTACTACACGTGTTTCACGGAGTCACCTAGTGCAG	5000 fluorescence intensity (a.u.)
GACTCCTCGGCCACCTCCTTCCGCTGCGCCACCGCCGCCGCGGAGTCACCTAGTGCAG	3580 fluorescence intensity (a.u.)
CCATTCTCGTTTTCCACGGCTCAACCGCTCTCTTCGCTCGCGGAGTCACCTAGTGCAG	3370 fluorescence intensity (a.u.)
ACATCCTATCCCGTGCATTGAATCAGCATTGTACAGCAAACGGAGTCACCTAGTGCAG	3370 fluorescence intensity (a.u.)
CGCCGACTTCGCGACGCCACGCTGTCTTTGACCGGCTCCGCGGAGTCACCTAGTGCAG	3880 fluorescence intensity (a.u.)
ACCATGTTTGGTCCTTAGTACTTACTACCTCCGTATTTTACGGAGTCACCTAGTGCAG	25000 fluorescence intensity (a.u.)
TGTTTACGTCCAACGTTTAACCGCTCGTCTTATTTGAAATCGGAGTCACCTAGTGCAG	21000 fluorescence intensity (a.u.)
ATTAATGTATATGTGTTGCTGATTCAACTTTAAATGCCTACGGAGTCACCTAGTGCAG	3450 fluorescence intensity (a.u.)
GGAGTTGTCCCCTCCAATGCTACATGCCAAATCATCCGGACGGAGTCACCTAGTGCAG	3820 fluorescence intensity (a.u.)
GATTTGTCGGCCGGTGGCAGCCATGGCTTCTCCTCCTCCTCGGAGTCACCTAGTGCAG	3820 fluorescence intensity (a.u.)

Sequence	binding signal
TTAATTGAAATGCCACCTAAGCACCACGTCAGCACACAGACGGAGTCACCTAGTGCAG	18700 fluorescence intensity (a.u.)
CGTCAAGCAAAGCCCCGCGTGACGCAACACGGATTGGACTCGGAGTCACCTAGTGCAG	5010 fluorescence intensity (a.u.)
TCACGGTTCGTTCAGCGCTCCACGCTAGGCTTAATTTGCCCGGAGTCACCTAGTGCAG	3330 fluorescence intensity (a.u.)
TATGTAACTGTTGCTTCTAACTTCTGTTCCCCGTCACTGTCGGAGTCACCTAGTGCAG	4120 fluorescence intensity (a.u.)
AAATTGTCACGTAAGTGTCACGTCAATGCTATATAGGATGCGGAGTCACCTAGTGCAG	7650 fluorescence intensity (a.u.)
TTCCTCTCCTTCTAAATGCCCTCGTCGTCTACTTTTGATCCGGAGTCACCTAGTGCAG	4640 fluorescence intensity (a.u.)
TCTTCTGTGCCTGCTCTGTCCACGCATCCAGCAGCTTAGTCGGAGTCACCTAGTGCAG	3330 fluorescence intensity (a.u.)
AATCAATTCCCCACCTGTCGTCATTTATCCATCATCACATCGGAGTCACCTAGTGCAG	4510 fluorescence intensity (a.u.)
ACTGGATCGCTGTTTCCTCCACGTGGTGCATTGTCCTTGGCGGAGTCACCTAGTGCAG	5240 fluorescence intensity (a.u.)
GGGAGGACGAAGGAACGCCAATACCGACATTGCTCAAGCTCGGAGTCACCTAGTGCAG	65300 fluorescence intensity (a.u.)
ATTTCGCACGCCATATCCATGCTGGCATGCACATGTGGCGCGGAGTCACCTAGTGCAG	4600 fluorescence intensity (a.u.)
GTAATGCAAAGATTTTCCAACACGTTGACACCATACCACCCGGAGTCACCTAGTGCAG	5560 fluorescence intensity (a.u.)
AGAGCACGTGTAGGCCCTACCTAACGAGGAACATGTGAAGCGGAGTCACCTAGTGCAG	4840 fluorescence intensity (a.u.)
CCGTTGTTTCAGAATTCCGTGGCGGATTGCAACGTGTCGGCGGAGTCACCTAGTGCAG	4280 fluorescence intensity (a.u.)
CGTGTGTGTAACTGACATGTGGGTCTCATAGTGTTTGTTACGGAGTCACCTAGTGCAG	5080 fluorescence intensity (a.u.)
GGGCTCATCTTCACCGTTGTCATTCAGTTATTCACATAAGCGGAGTCACCTAGTGCAG	3360 fluorescence intensity (a.u.)
CATTTTGTTGCAAATACCCATCCTCTACTAAGTTTTATTACGGAGTCACCTAGTGCAG	16700 fluorescence intensity (a.u.)
TTGGGAGCAACTCACACACTCCCTTCGAGCAAATATTGTTCGGAGTCACCTAGTGCAG	34100 fluorescence intensity (a.u.)
CATAGTGGGCTGGTGCTTACGTAAGATGAGACTTAGGTGGCGGAGTCACCTAGTGCAG	4070 fluorescence intensity (a.u.)
CATCTTCGGCGAGATTTCCACCCGCAGCGATGTCGTCCTCCGGAGTCACCTAGTGCAG	3180 fluorescence intensity (a.u.)
ACTGGTCGGATTTGCCACTGTCACCCACTGGAACGACAGACGGAGTCACCTAGTGCAG	3510 fluorescence intensity (a.u.)

Sequence	binding signal
CTATATTTCCAGGAGTACAAAATGGTGGGCTCGATGTCTTCGGAGTCACCTAGTGCAG	35100 fluorescence intensity (a.u.)
ATACTTGGACTATTCTCTTTCGGAAACTTGACTAGTTACACGGAGTCACCTAGTGCAG	43200 fluorescence intensity (a.u.)
TTTATTTTGTTATGAGTTGTTTTATTACTCATAGTATTTTCGGAGTCACCTAGTGCAG	3670 fluorescence intensity (a.u.)
AGAAAGAGGAGAGGGCTCTTCCTAGTCATCGACCAATCTTCGGAGTCACCTAGTGCAG	4350 fluorescence intensity (a.u.)
CCGCCAACGCCGACGACGAGGCCCGCGCCCTCCTCCCTCGCGGAGTCACCTAGTGCAG	3290 fluorescence intensity (a.u.)
GTTCCCTCTTGCCAACAACAGCTGACTAATAGATGGGTAACGGAGTCACCTAGTGCAG	3360 fluorescence intensity (a.u.)
ACCTGTCAGGGACACACGTCCCACTGACCTGAATTCACCGCGGAGTCACCTAGTGCAG	3900 fluorescence intensity (a.u.)
TAGCACCACATTGTCAAATCATAGAGCAATTAGGCTTAAACGGAGTCACCTAGTGCAG	22700 fluorescence intensity (a.u.)
TATTGGTTTTGTAAGTCTGGGGACGTGTTATATCCGGTTTCGGAGTCACCTAGTGCAG	5300 fluorescence intensity (a.u.)
GCGGTGCAGGGCGGTGGCGGCGGCGGGTGGGGCGGTGGCGCGGAGTCACCTAGTGCAG	5280 fluorescence intensity (a.u.)
CACTTGAAAGGAGCGGTATGGCGGTGACTTAAGGTTTGTTCGGAGTCACCTAGTGCAG	4040 fluorescence intensity (a.u.)
TTTTCGCTGAGGTGGCAGGTTAACTTGTCTGCTTTCGGCCCGGAGTCACCTAGTGCAG	39300 fluorescence intensity (a.u.)
CATTAGACATATATTTTCTATATTTATATTGATATTATATCGGAGTCACCTAGTGCAG	3280 fluorescence intensity (a.u.)
TGTGATTTATATCGTGGAAGATGATGGCTTGGCGGTATAGCGGAGTCACCTAGTGCAG	25800 fluorescence intensity (a.u.)
CGTCACACACTGCTTACACCCACGCACACACCGCGGCGCCCGGAGTCACCTAGTGCAG	3510 fluorescence intensity (a.u.)
TGACATTCTGTTTTGCTTTTCCTGCTGATATCAACATGTTCGGAGTCACCTAGTGCAG	3350 fluorescence intensity (a.u.)
GCGCGGCTTTGACCCAGGGATAATCCCACTACTGGCTACTCGGAGTCACCTAGTGCAG	3890 fluorescence intensity (a.u.)
TTCTAATCTCTATGACATCAGAGAACATTCTAACTGACCTCGGAGTCACCTAGTGCAG	3640 fluorescence intensity (a.u.)
TTGGTCGACATGGGTGGGAGGCGGATCGATGACGTAGAATCGGAGTCACCTAGTGCAG	5440 fluorescence intensity (a.u.)
AATTTGCATCAGCAGTACTGCATCAGCAGTATTACAGATGCGGAGTCACCTAGTGCAG	4420 fluorescence intensity (a.u.)
ATGACATTGTCCTGCCATTCGTCGTCCCTCCACCGCAATACGGAGTCACCTAGTGCAG	3180 fluorescence intensity (a.u.)
